Results taken from the supplement of paper PMC4635364.
This is one part of the list. Repeats in this data set agree poorly, so a single value says little.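 Cells: ReNCell VM human fetal ventral-midbrain neural progenitors, differentiated mitogen-free. Blinded raters compared doublecortin-stained (early neurons) or tyrosine hydroxylase-stained (dopaminergic neurons) images with untreated wells, where 0 means no change. After repeats and both raters were averaged, compounds scoring 2 or above became hits for retesting.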

Each compound was assayed on ReNCell VM (assay: dopaminergic neuron differentiation score (TH+ cell fraction vs untreated, manual image score) (score (0 to 3)); higher = more TH+ dopaminergic neuron differentiation). Details: library: Spectrum; 2 uM; 4 weeks; BDNF 10 ng/ml + GDNF 10 ng/ml.

Dopaminergic neuron differentiation score, inactive:
NC[C@H]1CC[C@H](C(=O)O)CC1 0
CC(C)CCC[C@@H](C)[C@H]1CC[C@H]2[C@@H]3CC=C4C[C@@H](O)CC[C@]4(C)[C@H]3CC[C@]12C 0
CCC(=O)OCC(=O)[C@@]1(OC(=O)CC)[C@@H](C)C[C@H]2[C@@H]3CCC4=CC(=O)C=C[C@]4(C)[C@@]3(F)[C@@H](O)C[C@@]21C 0
Cc1cc2nc3ccc(N(C)C)cc3[s+]c2cc1N 0
CN(C)[C@@H]1C(O)=C(C(N)=O)C(=O)[C@@]2(O)C(O)=C3C(=O)c4c(O)cccc4[C@@](C)(O)[C@H]3[C@H](O)[C@@H]12 0
CCCCOc1ccc(OCCCN2CCOCC2)cc1 0
COC(=O)[C@@H]1OC(=O)C2OC23[C@@]1(C)CCC1[C@]2(C)C(C[C@@H](O)[C@]13C)C(C)(C)[C@H](OC(C)=O)C[C@@H]2OC(C)=O (some centres undefined) 0
COc1ccc(-c2coc3cc(O)ccc3c2=O)c(O)c1O 0
COc1ccc(-c2oc3cc(OC)c(OC)c(OC)c3c(=O)c2OC)cc1 0
C=C1C[C@]23C[C@@]1(O)CC[C@H]2[C@@]12C=C[C@H](O)[C@@](C)(C(=O)O1)[C@H]2[C@@H]3C(=O)O 0
CCCOc1ccc2[nH]c(NC(=O)OC)nc2c1 0
O=C(C1CCCCC1)N1CC(=O)N2CCc3ccccc3C2C1 (centres undefined) 1
CCCCCCCCCc1ccc(OCCOCCOCCOCCOCCOCCOCCOCCOCCO)cc1 0
CC(C)(C)CC(C)(C)c1ccc(OCCOCC[N+](C)(C)Cc2ccccc2)cc1 0

Looked up by structure from above:
Dopaminergic neuron differentiation score, inactive:
CN(C)[C@@H]1C(O)=C(C(N)=O)C(=O)[C@@]2(O)C(O)=C3C(=O)c4c(O)cccc4[C@@](C)(O)[C@H]3[C@H](O)[C@@H]12 0
Cc1cc2nc3ccc(N(C)C)cc3[s+]c2cc1N 0
